Assay [1] concerns the target T1, SA1 (Stromalin Antigen 1, STAG1) (human (endogenous in HCT116)) (UniProt Q8WVM7).
T1 sequence: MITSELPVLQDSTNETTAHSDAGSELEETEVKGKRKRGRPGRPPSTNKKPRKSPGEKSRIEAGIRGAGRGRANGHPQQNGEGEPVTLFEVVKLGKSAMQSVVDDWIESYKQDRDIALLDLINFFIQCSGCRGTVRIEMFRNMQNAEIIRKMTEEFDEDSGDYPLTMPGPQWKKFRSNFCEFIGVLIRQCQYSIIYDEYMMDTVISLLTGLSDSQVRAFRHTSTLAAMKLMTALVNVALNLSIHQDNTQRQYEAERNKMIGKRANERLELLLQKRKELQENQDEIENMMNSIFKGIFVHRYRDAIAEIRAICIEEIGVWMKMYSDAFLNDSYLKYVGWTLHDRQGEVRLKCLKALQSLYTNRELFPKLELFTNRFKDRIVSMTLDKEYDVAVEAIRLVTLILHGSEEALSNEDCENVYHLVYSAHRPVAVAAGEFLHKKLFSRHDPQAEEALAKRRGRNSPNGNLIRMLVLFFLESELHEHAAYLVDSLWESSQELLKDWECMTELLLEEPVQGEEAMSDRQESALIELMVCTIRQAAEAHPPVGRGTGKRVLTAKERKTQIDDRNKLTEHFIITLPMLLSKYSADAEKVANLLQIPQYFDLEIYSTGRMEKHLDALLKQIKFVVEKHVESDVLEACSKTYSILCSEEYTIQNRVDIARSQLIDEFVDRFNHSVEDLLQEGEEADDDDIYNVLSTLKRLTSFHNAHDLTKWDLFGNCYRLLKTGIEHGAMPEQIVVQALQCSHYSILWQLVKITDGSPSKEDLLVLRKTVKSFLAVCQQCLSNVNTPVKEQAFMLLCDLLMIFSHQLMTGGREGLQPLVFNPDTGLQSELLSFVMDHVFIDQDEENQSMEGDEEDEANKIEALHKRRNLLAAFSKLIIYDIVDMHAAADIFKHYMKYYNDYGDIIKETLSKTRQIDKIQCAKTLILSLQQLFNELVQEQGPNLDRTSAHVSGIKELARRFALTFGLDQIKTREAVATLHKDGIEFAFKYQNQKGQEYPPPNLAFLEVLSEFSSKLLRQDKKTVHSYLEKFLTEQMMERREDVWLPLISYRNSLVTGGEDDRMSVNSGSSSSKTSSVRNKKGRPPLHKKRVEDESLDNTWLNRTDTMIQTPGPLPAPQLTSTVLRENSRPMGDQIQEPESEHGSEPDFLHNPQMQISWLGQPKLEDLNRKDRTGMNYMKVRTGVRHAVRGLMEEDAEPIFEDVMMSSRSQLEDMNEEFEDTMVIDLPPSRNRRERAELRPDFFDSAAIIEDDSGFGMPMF
Nature of the assay: affinity purification with mass spectrometry.

Chains of the proteins cited; added tags and fusions are not shown.
UniProt Q7Z739: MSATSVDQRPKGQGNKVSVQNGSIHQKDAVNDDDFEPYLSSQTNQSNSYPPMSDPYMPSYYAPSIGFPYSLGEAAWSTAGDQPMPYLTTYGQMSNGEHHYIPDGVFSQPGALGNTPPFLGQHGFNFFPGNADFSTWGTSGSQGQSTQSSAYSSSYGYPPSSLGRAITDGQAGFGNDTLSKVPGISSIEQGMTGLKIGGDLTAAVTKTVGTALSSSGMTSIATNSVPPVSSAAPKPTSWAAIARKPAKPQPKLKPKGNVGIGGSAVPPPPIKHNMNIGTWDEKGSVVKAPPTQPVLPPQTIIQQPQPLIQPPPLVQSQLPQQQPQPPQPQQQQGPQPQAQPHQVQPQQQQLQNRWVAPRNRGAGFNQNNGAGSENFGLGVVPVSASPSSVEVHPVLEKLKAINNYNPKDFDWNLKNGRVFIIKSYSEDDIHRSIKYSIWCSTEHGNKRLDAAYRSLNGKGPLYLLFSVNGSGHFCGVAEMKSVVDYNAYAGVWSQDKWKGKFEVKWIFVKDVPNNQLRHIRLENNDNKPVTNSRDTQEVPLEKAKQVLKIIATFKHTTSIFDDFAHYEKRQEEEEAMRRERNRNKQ

Assay [2] deals with T2, YFP-SA2^e32+ (YFP-tagged SA2 containing exon 32) (human) (UniProt Q8N3U4).
T2 sequence: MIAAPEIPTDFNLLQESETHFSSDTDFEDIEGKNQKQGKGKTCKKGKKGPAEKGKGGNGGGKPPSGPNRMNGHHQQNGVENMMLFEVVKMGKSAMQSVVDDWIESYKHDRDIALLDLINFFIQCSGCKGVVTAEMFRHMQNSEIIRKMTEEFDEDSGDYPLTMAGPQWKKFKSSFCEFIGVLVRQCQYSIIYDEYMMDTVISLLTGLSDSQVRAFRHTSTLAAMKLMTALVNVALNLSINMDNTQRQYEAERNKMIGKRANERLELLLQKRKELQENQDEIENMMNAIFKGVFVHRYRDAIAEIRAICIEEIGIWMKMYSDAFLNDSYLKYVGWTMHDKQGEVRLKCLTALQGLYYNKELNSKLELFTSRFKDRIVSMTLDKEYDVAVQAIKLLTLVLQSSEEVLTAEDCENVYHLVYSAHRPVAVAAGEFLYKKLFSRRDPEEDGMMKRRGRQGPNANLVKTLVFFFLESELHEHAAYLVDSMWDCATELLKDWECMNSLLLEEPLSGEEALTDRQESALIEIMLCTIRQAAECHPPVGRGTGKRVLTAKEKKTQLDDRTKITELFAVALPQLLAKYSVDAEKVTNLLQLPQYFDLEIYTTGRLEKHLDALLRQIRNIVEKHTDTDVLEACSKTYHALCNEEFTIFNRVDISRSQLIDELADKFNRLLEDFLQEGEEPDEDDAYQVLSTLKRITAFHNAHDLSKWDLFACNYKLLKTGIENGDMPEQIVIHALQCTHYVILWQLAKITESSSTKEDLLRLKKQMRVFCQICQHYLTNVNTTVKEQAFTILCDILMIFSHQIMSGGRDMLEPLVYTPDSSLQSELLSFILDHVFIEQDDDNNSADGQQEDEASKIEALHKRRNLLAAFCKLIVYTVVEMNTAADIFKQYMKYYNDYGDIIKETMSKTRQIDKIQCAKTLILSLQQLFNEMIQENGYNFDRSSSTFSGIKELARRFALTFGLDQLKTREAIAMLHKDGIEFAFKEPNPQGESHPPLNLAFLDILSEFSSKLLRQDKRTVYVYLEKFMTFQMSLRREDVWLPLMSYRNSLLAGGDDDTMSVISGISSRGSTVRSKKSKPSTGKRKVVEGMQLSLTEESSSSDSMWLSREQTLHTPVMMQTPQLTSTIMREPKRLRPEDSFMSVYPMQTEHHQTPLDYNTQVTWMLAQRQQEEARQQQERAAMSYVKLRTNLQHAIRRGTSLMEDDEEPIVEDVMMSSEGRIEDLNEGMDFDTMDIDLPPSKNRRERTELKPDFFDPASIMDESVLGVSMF
Nature of the assay: affinity purification with mass spectrometry.

No constants are given. Whether binding was seen depends on the method and setting. In cells and extracts the contact can be indirect. A yes stands for co-enrichment or nearness to the bait. Other partners may have been found. Sequences can lack the tags named with a protein.

On to YTHDF3 (from UniProt Q7Z739 1-585), for which the binding result in assay [1] and in assay [2] was “binds” throughout.

B1: DHX29 (protein, UniProt Q7Z478 1-1369)
chain: MGGKNKKHKAPAAAVVRAAVSASRAKSAEAGIAGEAQSKKPVSRPATAAAAAAGSREPRVKQGPKIYSFNSTNDSSGPANLDKSILKVVINNKLEQRIIGVINEHKKQNNDKGMISGRLTAKKLQDLYMALQAFSFKTKDIEDAMTNTLLYGGDLHSALDWLCLNLSDDALPEGFSQEFEEQQPKSRPKFQSPQIQATISPPLQPKTKTYEEDPKSKPKKEEKNMEVNMKEWILRYAEQQNEEEKNENSKSLEEEEKFDPNERYLHLAAKLLDAKEQAATFKLEKNKQGQKEAQEKIRKFQREMETLEDHPVFNPAMKISHQQNERKKPPVATEGESALNFNLFEKSAAATEEEKDKKKEPHDVRNFDYTARSWTGKSPKQFLIDWVRKNLPKSPNPSFEKVPVGRYWKCRVRVIKSEDDVLVVCPTILTEDGMQAQHLGATLALYRLVKGQSVHQLLPPTYRDVWLEWSDAEKKREELNKMETNKPRDLFIAKLLNKLKQQQQQQQQHSENKRENSEDPEESWENLVSDEDFSALSLESANVEDLEPVRNLFRKLQSTPKYQKLLKERQQLPVFKHRDSIVETLKRHRVVVVAGETGSGKSTQVPHFLLEDLLLNEWEASKCNIVCTQPRRISAVSLANRVCDELGCENGPGGRNSLCGYQIRMESRACESTRLLYCTTGVLLRKLQEDGLLSNVSHVIVDEVHERSVQSDFLLIILKEILQKRSDLHLILMSATVDSEKFSTYFTHCPILRISGRSYPVEVFHLEDIIEETGFVLEKDSEYCQKFLEEEEEVTINVTSKAGGIKKYQEYIPVQTGAHADLNPFYQKYSSRTQHAILYMNPHKINLDLILELLAYLDKSPQFRNIEGAVLIFLPGLAHIQQLYDLLSNDRRFYSERYKVIALHSILSTQDQAAAFTLPPPGVRKIVLATNIAETGITIPDVVFVIDTGRTKENKYHESSQMSSLVETFVSKASALQRQGRAGRVRDGFCFRMYTRERFEGFMDYSVPEILRVPLEELCLHIMKCNLGSPEDFLSKALDPPQLQVISNAMNLLRKIGACELNEPKLTPLGQHLAALPVNVKIGKMLIFGAIFGCLDPVATLAAVMTEKSPFTTPIGRKDEADLAKSALAMADSDHLTIYNAYLGWKKARQEGGYRSEITYCRRNFLNRTSLLTLEDVKQELIKLVKAAGFSSSTTSTSWEGNRASQTLSFQEIALLKAVLVAGLYDNVGKIIYTKSVDVTEKLACIVETAQGKAQVHPSSVNRDLQTHGWLLYQEKIRYARVYLRETTLITPFPVLLFGGDIEVQHRERLLSIDGWIYFQAPVKIAVIFKQLRVLIDSVLRKKLENPKMSLENDKILQIITELIKTENN
As to B1, in assay [1], the binding entry is reported as “binds”.

B2: DIS3 (protein, UniProt Q9Y2L1 1-958)
chain: MLKSKTFLKKTRAGGVMKIVREHYLRDDIGCGAPGCAACGGAHEGPALEPQPQDPASSVCPQPHYLLPDTNVLLHQIDVLEDPAIRNVIVLQTVLQEVRNRSAPVYKRIRDVTNNQEKHFYTFTNEHHRETYVEQEQGENANDRNDRAIRVAAKWYNEHLKKMSADNQLQVIFITNDRRNKEKAIEEGIPAFTCEEYVKSLTANPELIDRLACLSEEGNEIESGKIIFSEHLPLSKLQQGIKSGTYLQGTFRASRENYLEATVWIHGDNEENKEIILQGLKHLNRAVHEDIVAVELLPKSQWVAPSSVVLHDEGQNEEDVEKEEETERMLKTAVSEKMLKPTGRVVGIIKRNWRPYCGMLSKSDIKESRRHLFTPADKRIPRIRIETRQASTLEGRRIIVAIDGWPRNSRYPNGHFVRNLGDVGEKETETEVLLLEHDVPHQPFSQAVLSFLPKMPWSITEKDMKNREDLRHLCICSVDPPGCTDIDDALHCRELENGNLEVGVHIADVSHFIRPGNALDQESARRGTTVYLCEKRIDMVPELLSSNLCSLKCDVDRLAFSCIWEMNHNAEILKTKFTKSVINSKASLTYAEAQLRIDSANMNDDITTSLRGLNKLAKILKKRRIEKGALTLSSPEVRFHMDSETHDPIDLQTKELRETNSMVEEFMLLANISVAKKIHEEFSEHALLRKHPAPPPSNYEILVKAARSRNLEIKTDTAKSLAESLDQAESPTFPYLNTLLRILATRCMMQAVYFCSGMDNDFHHYGLASPIYTHFTSPIRRYADVIVHRLLAVAIGADCTYPELTDKHKLADICKNLNFRHKMAQYAQRASVAFHTQLFFKSKGIVSEEAYILFVRKNAIVVLIPKYGLEGTVFFEEKDKPNPQLIYDDEIPSLKIEDTVFHVFDKVKVKIMLDSSNLQHQKIRMSLVEPQIPGISIPTDTSNMDLNGPKKKKMKLGK
Regarding B2, in assay [2], the binding entry is “binds”.

B3: ESYT2 (protein, UniProt A0FGR8 1-921)
chain: MTANRDAALSSHRHPGCAQRPRTPTFASSSQRRSAFGFDDGNFPGLGERSHAPGSRLGARRRAKTARGLRGHRQRGAGAGLSRPGSARAPSPPRPGGPENPGGVLSVELPGLLAQLARSFALLLPVYALGYLGLSFSWVLLALALLAWCRRSRGLKALRLCRALALLEDEERVVRLGVRACDLPAWVHFPDTERAEWLNKTVKHMWPFICQFIEKLFRETIEPAVRGANTHLSTFSFTKVDVGQQPLRINGVKVYTENVDKRQIILDLQISFVGNCEIDLEIKRYFCRAGVKSIQIHGTMRVILEPLIGDMPLVGALSIFFLRKPLLEINWTGLTNLLDVPGLNGLSDTIILDIISNYLVLPNRITVPLVSEVQIAQLRFPVPKGVLRIHFIEAQDLQGKDTYLKGLVKGKSDPYGIIRVGNQIFQSRVIKENLSPKWNEVYEALVYEHPGQELEIELFDEDPDKDDFLGSLMIDLIEVEKERLLDEWFTLDEVPKGKLHLRLEWLTLMPNASNLDKVLTDIKADKDQANDGLSSALLILYLDSARNLPSGKKISSNPNPVVQMSVGHKAQESKIRYKTNEPVWEENFTFFIHNPKRQDLEVEVRDEQHQCSLGNLKVPLSQLLTSEDMTVSQRFQLSNSGPNSTIKMKIALRVLHLEKRERPPDHQHSAQVKRPSVSKEGRKTSIKSHMSGSPGPGGSNTAPSTPVIGGSDKPGMEEKAQPPEAGPQGLHDLGRSSSSLLASPGHISVKEPTPSIASDISLPIATQELRQRLRQLENGTTLGQSPLGQIQLTIRHSSQRNKLIVVVHACRNLIAFSEDGSDPYVRMYLLPDKRRSGRRKTHVSKKTLNPVFDQSFDFSVSLPEVQRRTLDVAVKNSGGFLSKDKGLLGKVLVALASEELAKGWTQWYDLTEDGTRPQAMT
Turning to B3, the binding entry in assay [1] is “binds”.

The values are drawn from doi:10.1101/2021.02.20.432055.
